This is one part of the list.
What was measured:
Assay in all cases: log2 fold change, soluble protein after heating vs DMSO (PISA); higher = thermal stabilisation; K562 lysate, 10 uM; active = over 0.2 and 3.5 SD of the protein, either way, in both replicates (recomputed)
[1] = compound: C1=CC=C(C=C1)[C@H](COC2=CC3=C(C=C2)NC(=O)N3)NC(=O)C4=CC=CN(C4=O)CC5=CC(=C(C=C5)F)F
Procedure, shortened: (§1)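 A 30 min treatment with 10 μM compound was applied to crude K562 extract at 1 mg/mL protein in PBS pH 7.4 with 1 mM MgCl2. Heating for 3 min spanned 48°C-58°C, after which aliquots were pooled, adjusted to 0.5% NP-40 at 4°C and spun at 21,000xg for 90 min. TMTpro 16plex LC-MS/MS of the supernatant, with channel sums equalised, gave values recorded as log-two fold change in thermal stability against solvent controls, from duplicates.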

By UniProt entry, the sequences of proteins in these tests, tags left out. Where a name states a change or a piece, a line headed by the entry shows the natural chain unless it says otherwise.
UniProt Q9NVA1: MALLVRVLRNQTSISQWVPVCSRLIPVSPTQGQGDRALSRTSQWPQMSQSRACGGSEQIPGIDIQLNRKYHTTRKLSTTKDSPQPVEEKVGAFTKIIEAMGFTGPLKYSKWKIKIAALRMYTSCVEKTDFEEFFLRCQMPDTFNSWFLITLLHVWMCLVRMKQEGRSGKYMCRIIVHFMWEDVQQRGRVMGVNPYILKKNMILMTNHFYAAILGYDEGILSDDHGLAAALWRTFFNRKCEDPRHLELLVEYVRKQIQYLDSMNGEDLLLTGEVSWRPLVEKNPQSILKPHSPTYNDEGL
UniProt O94782: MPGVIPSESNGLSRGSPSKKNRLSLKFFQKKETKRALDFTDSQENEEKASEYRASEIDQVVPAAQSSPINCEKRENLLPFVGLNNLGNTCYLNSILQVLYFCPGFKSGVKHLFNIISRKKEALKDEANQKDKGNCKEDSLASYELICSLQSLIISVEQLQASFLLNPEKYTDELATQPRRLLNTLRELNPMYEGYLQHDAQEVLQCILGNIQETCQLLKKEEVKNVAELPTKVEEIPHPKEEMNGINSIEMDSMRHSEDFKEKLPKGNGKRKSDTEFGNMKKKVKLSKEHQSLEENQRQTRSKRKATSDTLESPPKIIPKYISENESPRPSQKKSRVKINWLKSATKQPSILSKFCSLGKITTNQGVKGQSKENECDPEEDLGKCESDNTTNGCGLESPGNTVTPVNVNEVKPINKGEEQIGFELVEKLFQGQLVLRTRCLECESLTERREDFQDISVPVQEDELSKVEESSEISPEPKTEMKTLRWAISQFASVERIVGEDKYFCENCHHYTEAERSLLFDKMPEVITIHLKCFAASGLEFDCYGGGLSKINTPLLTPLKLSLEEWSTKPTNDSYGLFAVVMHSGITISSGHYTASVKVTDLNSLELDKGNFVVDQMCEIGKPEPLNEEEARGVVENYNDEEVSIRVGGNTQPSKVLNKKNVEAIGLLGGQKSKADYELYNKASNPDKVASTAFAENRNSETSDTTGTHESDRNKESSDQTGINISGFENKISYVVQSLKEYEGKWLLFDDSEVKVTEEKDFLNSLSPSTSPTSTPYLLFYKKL
UniProt Q8TED0: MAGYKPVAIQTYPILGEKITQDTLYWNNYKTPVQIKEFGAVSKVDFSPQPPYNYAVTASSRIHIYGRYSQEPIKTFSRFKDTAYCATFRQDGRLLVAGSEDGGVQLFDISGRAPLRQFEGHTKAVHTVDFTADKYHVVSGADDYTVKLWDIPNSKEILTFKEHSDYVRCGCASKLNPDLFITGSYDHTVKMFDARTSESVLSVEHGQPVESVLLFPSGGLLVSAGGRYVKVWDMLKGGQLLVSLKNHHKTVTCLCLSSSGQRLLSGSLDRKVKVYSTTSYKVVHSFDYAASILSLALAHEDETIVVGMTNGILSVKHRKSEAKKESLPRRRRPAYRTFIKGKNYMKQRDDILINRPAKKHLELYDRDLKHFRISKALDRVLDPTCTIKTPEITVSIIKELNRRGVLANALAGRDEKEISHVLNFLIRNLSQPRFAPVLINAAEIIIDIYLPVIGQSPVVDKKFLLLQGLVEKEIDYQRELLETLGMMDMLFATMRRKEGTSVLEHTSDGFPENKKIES
UniProt Q96BW1: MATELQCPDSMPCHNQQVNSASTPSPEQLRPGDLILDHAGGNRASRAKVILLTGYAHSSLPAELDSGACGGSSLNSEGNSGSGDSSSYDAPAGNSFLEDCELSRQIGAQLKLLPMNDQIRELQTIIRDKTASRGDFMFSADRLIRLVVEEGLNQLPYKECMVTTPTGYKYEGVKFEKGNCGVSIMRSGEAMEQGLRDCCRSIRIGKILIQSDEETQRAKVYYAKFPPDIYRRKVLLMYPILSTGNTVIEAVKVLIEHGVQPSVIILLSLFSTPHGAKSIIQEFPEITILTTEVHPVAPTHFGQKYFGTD
UniProt P47985: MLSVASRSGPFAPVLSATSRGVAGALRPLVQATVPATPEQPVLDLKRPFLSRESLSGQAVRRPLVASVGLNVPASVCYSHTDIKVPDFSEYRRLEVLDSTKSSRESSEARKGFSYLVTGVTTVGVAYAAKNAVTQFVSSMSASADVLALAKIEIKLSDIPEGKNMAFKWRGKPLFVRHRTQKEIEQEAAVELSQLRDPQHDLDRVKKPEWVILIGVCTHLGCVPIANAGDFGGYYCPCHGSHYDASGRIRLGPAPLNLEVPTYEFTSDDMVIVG
UniProt Q9P2Y5: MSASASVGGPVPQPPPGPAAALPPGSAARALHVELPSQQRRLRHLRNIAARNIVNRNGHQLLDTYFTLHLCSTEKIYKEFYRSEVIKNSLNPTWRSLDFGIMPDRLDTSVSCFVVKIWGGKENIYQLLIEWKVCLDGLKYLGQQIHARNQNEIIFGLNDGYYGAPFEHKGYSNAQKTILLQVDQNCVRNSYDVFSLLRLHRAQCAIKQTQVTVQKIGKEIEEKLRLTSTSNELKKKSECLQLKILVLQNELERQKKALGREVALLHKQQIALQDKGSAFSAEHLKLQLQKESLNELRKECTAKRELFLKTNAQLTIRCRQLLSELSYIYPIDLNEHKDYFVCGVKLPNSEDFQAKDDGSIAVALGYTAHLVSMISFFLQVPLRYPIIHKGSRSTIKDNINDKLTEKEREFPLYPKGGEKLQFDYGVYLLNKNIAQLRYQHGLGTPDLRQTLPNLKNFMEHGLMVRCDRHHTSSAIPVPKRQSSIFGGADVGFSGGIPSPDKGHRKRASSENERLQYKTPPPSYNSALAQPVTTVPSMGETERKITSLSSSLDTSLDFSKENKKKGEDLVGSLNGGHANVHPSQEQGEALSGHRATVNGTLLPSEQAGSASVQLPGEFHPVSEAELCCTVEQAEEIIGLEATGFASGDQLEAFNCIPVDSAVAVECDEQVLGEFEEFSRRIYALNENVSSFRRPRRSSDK
UniProt P61960, whole entry, looked up: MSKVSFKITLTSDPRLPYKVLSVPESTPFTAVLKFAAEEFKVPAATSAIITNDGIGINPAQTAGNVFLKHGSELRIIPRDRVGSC
UniProt Q15836, whole entry, looked up: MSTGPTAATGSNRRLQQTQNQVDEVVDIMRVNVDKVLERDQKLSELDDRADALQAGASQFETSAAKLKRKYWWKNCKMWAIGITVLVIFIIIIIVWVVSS
UniProt P45974: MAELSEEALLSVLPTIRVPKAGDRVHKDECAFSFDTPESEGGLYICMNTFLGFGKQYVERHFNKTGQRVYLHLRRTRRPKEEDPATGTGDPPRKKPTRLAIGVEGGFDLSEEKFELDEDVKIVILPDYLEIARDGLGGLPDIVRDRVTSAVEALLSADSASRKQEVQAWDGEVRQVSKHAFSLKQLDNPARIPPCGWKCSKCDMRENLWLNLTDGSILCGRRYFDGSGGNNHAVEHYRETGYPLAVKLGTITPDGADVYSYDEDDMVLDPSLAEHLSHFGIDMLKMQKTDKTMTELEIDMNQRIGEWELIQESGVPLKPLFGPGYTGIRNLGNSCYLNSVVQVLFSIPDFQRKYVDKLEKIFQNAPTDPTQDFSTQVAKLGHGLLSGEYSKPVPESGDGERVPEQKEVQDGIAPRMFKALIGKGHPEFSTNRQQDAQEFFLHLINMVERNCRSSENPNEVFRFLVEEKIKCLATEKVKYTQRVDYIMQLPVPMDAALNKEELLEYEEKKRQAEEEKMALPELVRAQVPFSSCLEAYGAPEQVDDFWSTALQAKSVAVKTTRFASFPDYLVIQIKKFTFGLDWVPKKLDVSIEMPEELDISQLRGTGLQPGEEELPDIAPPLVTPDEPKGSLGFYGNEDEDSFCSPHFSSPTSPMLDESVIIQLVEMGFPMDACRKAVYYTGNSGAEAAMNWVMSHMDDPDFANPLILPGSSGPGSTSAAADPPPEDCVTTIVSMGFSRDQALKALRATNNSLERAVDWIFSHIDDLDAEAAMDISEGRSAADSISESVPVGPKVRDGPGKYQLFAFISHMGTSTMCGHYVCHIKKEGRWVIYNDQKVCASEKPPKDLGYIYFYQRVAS
UniProt P14927: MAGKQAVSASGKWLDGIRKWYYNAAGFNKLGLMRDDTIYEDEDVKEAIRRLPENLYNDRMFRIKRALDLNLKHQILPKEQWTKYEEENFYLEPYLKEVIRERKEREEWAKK
UniProt Q93008, whole entry, looked up: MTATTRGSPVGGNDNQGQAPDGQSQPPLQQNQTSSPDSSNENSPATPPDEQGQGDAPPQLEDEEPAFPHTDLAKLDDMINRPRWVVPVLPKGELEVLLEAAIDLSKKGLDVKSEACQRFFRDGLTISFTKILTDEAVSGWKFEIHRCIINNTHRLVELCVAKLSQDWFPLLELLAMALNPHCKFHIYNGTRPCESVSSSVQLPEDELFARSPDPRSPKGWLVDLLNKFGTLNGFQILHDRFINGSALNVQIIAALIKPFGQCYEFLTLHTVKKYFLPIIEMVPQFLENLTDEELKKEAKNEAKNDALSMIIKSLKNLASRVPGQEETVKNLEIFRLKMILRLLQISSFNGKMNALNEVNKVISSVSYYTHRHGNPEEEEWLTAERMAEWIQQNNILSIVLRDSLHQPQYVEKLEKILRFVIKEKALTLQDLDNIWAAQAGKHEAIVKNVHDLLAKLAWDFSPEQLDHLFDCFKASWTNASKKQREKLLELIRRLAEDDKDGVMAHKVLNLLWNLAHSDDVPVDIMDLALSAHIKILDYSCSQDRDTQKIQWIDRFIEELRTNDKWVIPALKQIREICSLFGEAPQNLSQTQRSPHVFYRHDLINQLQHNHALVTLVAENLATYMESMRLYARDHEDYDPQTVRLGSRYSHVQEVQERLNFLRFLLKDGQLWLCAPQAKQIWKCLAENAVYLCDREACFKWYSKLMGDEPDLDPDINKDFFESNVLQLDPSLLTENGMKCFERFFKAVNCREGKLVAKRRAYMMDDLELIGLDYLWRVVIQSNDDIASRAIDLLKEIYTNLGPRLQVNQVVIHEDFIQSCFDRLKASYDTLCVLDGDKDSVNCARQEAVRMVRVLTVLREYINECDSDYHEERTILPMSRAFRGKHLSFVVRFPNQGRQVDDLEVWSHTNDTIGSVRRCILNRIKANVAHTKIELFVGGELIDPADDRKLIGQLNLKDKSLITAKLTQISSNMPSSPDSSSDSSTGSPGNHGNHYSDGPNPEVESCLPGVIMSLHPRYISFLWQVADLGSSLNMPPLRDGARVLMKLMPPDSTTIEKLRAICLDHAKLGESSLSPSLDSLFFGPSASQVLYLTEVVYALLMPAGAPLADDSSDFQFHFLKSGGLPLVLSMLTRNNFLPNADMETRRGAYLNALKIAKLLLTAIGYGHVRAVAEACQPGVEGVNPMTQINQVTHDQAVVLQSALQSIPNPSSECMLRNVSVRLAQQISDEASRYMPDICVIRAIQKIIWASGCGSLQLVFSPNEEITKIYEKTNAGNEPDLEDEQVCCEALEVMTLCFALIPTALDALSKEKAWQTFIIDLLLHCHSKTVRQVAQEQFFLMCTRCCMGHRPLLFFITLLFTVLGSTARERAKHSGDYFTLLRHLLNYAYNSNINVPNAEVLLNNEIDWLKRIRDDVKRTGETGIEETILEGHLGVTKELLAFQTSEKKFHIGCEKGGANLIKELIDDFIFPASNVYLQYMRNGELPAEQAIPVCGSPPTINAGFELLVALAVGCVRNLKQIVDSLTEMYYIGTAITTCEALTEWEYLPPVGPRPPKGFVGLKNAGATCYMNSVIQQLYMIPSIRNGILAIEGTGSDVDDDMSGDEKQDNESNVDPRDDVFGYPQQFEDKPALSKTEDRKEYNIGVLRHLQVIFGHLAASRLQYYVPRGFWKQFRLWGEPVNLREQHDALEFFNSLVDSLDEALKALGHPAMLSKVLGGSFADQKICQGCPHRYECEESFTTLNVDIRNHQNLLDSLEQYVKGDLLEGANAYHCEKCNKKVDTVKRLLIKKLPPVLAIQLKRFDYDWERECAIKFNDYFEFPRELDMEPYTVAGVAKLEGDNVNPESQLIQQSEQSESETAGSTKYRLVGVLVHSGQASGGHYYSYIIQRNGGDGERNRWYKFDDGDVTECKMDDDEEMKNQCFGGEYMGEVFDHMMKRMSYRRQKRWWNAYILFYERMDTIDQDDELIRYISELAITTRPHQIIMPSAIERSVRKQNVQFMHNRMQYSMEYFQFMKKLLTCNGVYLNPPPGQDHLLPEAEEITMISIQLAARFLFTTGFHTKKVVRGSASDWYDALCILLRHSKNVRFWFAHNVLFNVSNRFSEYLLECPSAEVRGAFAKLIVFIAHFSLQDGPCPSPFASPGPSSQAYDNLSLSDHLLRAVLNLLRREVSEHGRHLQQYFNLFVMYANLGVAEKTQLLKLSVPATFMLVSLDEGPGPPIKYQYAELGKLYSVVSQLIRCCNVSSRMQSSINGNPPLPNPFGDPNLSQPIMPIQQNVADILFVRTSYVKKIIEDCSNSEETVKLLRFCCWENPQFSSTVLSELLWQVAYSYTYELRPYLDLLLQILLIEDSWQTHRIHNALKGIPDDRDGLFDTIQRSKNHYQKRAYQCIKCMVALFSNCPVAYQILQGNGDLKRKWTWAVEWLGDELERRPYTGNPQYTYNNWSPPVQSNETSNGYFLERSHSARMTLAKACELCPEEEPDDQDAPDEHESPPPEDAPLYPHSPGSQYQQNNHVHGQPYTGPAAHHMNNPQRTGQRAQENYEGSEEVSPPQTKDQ

[2] = compound: CC1=C(SC2=C1C(=N[C@H](C3=NN=C(N32)C)CC(=O)N)C4=CC=C(C=C4)Cl)C
Procedure, shortened: as §1

[3] = compound: CC1=C2C(=CC=C1)N=C(N(C2=O)C3=CC=CC=C3C)CN4C=NC5=C(N=CN=C54)N
Procedure, shortened: as §1

[4] = compound: Cc1sc2c(c1C)C(c1ccc(Cl)cc1)=N[C@@H](CC(=O)OC(C)(C)C)c1nnc(C)n1-2
Procedure, shortened: as §1

[5] = compound: c1ccc([C@@H]2C[C@H]2NC2CCNCC2)cc1
Procedure, shortened: as §1

Measured: log2 fold change

UQCC1 (UniProt Q9NVA1)
inactive: [1] 0.033 | [2] -0.009 | [3] -0.012 | [4] 0.011 | [5] 0.017

UGT8 (UniProt Q16880)
inactive: [1] 0.122 | [2] 0.073 | [3] 0.057 | [4] 0.045 | [5] 0

UFL1 (UniProt O94874)
inactive: [1] -0.011 | [2] 0.014 | [3] 0.009 | [4] 0.004 | [5] 0.013

UQCRC2 (UniProt P22695)
inactive: [1] 0.003 | [2] 0.037 | [3] -0.007 | [4] 0.006 | [5] -0.015

USP1 (UniProt O94782)
inactive: [1] 0.047 | [2] 0.009 | [3] 0.002 | [4] 0.009 | [5] 0.005

UTP3 (UniProt Q9NQZ2)
inactive: [1] -0.009 | [2] -0.035 | [3] 0.076 | [4] -0.158 | [5] 0.018

USP8 (UniProt P40818)
inactive: [1] -0.018 | [2] 0.016 | [3] 0.01 | [4] 0.009 | [5] 0.036

UTP15 (UniProt Q8TED0)
inactive: [1] -0.021 | [2] -0.035 | [3] 0.01 | [4] -0.009 | [5] 0.011

UPRT (UniProt Q96BW1)
inactive: [1] 0.024 | [2] -0.011 | [3] -0.014 | [4] 0.035 | [5] 0.027

UQCRC1 (UniProt P31930)
inactive: [1] 0.024 | [2] 0.004 | [3] 0.023 | [4] 0.017 | [5] -0.035

UNC5B (UniProt Q8IZJ1)
inactive: [1] -0.028 | [2] -0.042 | [3] 0.13 | [4] -0.049 | [5] 0.184

UQCRFS1 (UniProt P47985)
inactive: [1] -0.043 | [2] 0.005 | [3] -0.012 | [4] 0.068 | [5] 0.032

UVRAG (UniProt Q9P2Y5)
inactive: [1] -0.028 | [2] -0.029 | [3] -0.007 | [4] 0.06 | [5] -0.013

UHRF1BP1L (UniProt A0JNW5)
inactive: [1] 0.019 | [2] 0.024 | [3] 0.014 | [4] 0.008 | [5] 0.024

UHRF1 isoform 2 (UniProt Q96T88)
inactive: [1] -0.13 | [2] -0.002 | [3] 0.026 | [4] 0.017 | [5] -0.003

UPF1 (UniProt Q92900)
inactive: [1] 0.007 | [2] 0.006 | [3] 0.005 | [4] 0.023 | [5] -0.01

USP15 (UniProt Q9Y4E8)
inactive: [1] 0.007 | [2] 0.008 | [3] 0.017 | [4] 0.016 | [5] 0.014

USP47 isoform 4 (UniProt Q96K76)
inactive: [1] 0.003 | [2] 0.01 | [3] 0.018 | [4] -0.005 | [5] 0.029

VAPA isoform 2 (UniProt Q9P0L0)
inactive: [1] 0.066 | [2] -0.043 | [3] 0.029 | [4] -0.035 | [5] -0.13

USO1 (UniProt O60763)
inactive: [1] 0.059 | [2] 0.078 | [3] -0.041 | [4] 0.031 | [5] -0.159

UNC93B1 (UniProt Q9H1C4)
inactive: [1] -0.069 | [2] 0.059 | [3] 0.034 | [4] -0.053 | [5] -0.029

USP48 (UniProt Q86UV5)
inactive: [1] -0.104 | [2] -0.028 | [3] -0.029 | [4] 0.098 | [5] -0.187

UXS1 isoform 2 (UniProt Q8NBZ7)
inactive: [1] -0.029 | [2] -0.006 | [3] 0.01 | [4] 0.056 | [5] -0.045

UGGT1 (UniProt Q9NYU2)
inactive: [1] 0.013 | [2] 0.021 | [3] -0.005 | [4] 0.017 | [5] 0.018

VHL (UniProt P40337)
inactive: [1] 0.165 | [2] 0.004 | [3] -0.029 | [4] -0.178 | [5] 0.08

USP3 (UniProt Q9Y6I4)
inactive: [1] 0.026 | [2] 0.006 | [3] -0.056 | [4] -0.044 | [5] 0.073

UFM1 (UniProt P61960)
inactive: [1] 0.015 | [2] -0.085 | [3] -0.103 | [4] -0.019 | [5] 0.297

VARS (UniProt P26640)
inactive: [1] -0.022 | [2] 0.013 | [3] 0.013 | [4] 0 | [5] 0.031

VAMP3 (UniProt Q15836)
inactive: [1] -0.004 | [2] -0.102 | [3] 0.077 | [4] 0.04 | [5] -0.027

Copied from the results shown (3 entries):
UPF1 (UniProt Q92900)
inactive: [1] 0.007 | [2] 0.006 | [3] 0.005 | [4] 0.023 | [5] -0.01

USP15 (UniProt Q9Y4E8)
inactive: [1] 0.007 | [2] 0.008 | [3] 0.017 | [4] 0.016 | [5] 0.014

USP47 isoform 4 (UniProt Q96K76)
inactive: [1] 0.003 | [2] 0.01 | [3] 0.018 | [4] -0.005 | [5] 0.029

Later entries:

USP5 isoform 2 (UniProt P45974)
inactive: [1] 0.004 | [2] 0.002 | [3] 0.021 | [4] 0.001 | [5] -0.004

USP22 (UniProt Q9UPT9)
inactive: [1] 0.039 | [2] -0.025 | [3] 0.012 | [4] 0.045 | [5] 0.055

VAV3 isoform 4 (UniProt Q9UKW4)
inactive: [1] 0.089 | [2] -0.012 | [3] 0.096 | [4] 0.001 | [5] -0.391

USP24 (UniProt Q9UPU5)
inactive: [1] -0.032 | [2] -0.011 | [3] 0.002 | [4] 0.011 | [5] 0.026

UQCRB (UniProt P14927)
inactive: [1] 0.034 | [2] -0.025 | [3] -0.042 | [4] -0.009 | [5] -0.027

UTP14A (UniProt Q9BVJ6)
inactive: [1] 0.017 | [2] 0.004 | [3] 0.035 | [4] -0.037 | [5] -0.024

URI1 (UniProt O94763)
inactive: [1] -0.004 | [2] -0.002 | [3] 0.009 | [4] 0.013 | [5] 0.02

USP39 (UniProt Q53GS9)
inactive: [1] 0.02 | [2] -0.013 | [3] 0.032 | [4] -0.022 | [5] 0.042

USP9X (UniProt Q93008)
inactive: [1] -0.033 | [2] 0.005 | [3] 0.014 | [4] 0.008 | [5] -0.001

VAV1 (UniProt P15498)
inactive: [1] -0.025 | [2] 0.001 | [3] -0.011 | [4] -0.017 | [5] -0.068

UQCC2 (UniProt Q9BRT2)
inactive: [1] 0.008 | [2] 0.019 | [3] -0.056 | [4] -0.057 | [5] 0.095

VCPIP1 (UniProt Q96JH7)
inactive: [1] -0.025 | [2] -0.008 | [3] 0.002 | [4] -0.052 | [5] -0.002

USP11 (UniProt P51784)
inactive: [1] -0.04 | [2] -0.079 | [3] 0.013 | [4] 0.009 | [5] -0.036

VAMP7 (UniProt P51809)
inactive: [1] -0.001 | [2] 0.04 | [3] -0.009 | [4] -0.024 | [5] -0.004

UNC119B (UniProt A6NIH7)
inactive: [1] -0.044 | [2] -0.034 | [3] 0.095 | [4] -0.198 | [5] -0.058

USP10 isoform 2 (UniProt Q14694)
inactive: [1] -0.038 | [2] 0.029 | [3] 0 | [4] -0.013 | [5] 0.023

UROD (UniProt P06132)
inactive: [1] 0.016 | [2] -0.04 | [3] -0.019 | [4] -0.018 | [5] -0.074

UTP6 (UniProt Q9NYH9)
inactive: [1] -0.087 | [2] 0.063 | [3] 0.044 | [4] 0.02 | [5] 0.108

USP34 (UniProt Q70CQ2)
inactive: [1] -0.002 | [2] -0.015 | [3] 0 | [4] -0.004 | [5] 0.073

UFC1 (UniProt Q9Y3C8)
inactive: [1] 0.033 | [2] -0.067 | [3] -0.017 | [4] -0.001 | [5] 0

URI1 isoform 4 (UniProt O94763)
inactive: [1] 0.042 | [2] -0.099 | [4] 0.025 | [5] -0.089

UTP18 (UniProt Q9Y5J1)
inactive: [1] 0.117 | [2] -0.005 | [3] -0.088 | [4] -0.013 | [5] 0.059

UMPS (UniProt P11172)
inactive: [1] -0.021 | [2] 0.02 | [3] -0.006 | [4] 0.019 | [5] 0.04

USP32 (UniProt Q8NFA0)
inactive: [1] -0.007 | [2] 0.034 | [3] 0.073 | [4] -0.039 | [5] -0.012
